Test results published in PMC11586402.
Numbering of substitutions follows the chain as printed. No constants are given. Whether binding was seen depends on the method and setting. In cells and extracts the contact can be indirect. Some entries that bind do so weakly or less than the wild type. For part of these data: Sequences can lack the tags named with a protein.

Key:
[1] = target: T1, Zfp260 (in the 293 T cell line) (mouse) (UniProt Q62513); assay: co-IP; whole cell lysate of the 293 T cell line, antibody overnight, magnetic bead capture, Western blot
T1 sequence: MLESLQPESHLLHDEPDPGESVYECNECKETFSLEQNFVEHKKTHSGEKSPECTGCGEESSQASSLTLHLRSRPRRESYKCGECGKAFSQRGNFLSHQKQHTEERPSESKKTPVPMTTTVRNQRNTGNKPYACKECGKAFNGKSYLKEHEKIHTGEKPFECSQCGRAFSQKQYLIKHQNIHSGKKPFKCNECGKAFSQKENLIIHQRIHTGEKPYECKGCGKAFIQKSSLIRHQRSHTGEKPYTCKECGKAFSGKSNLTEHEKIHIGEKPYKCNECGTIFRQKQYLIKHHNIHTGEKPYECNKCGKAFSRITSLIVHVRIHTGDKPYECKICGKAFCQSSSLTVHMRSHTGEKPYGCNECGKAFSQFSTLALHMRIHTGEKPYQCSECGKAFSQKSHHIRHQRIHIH

[2] = target: T2, Zfp260-V5 S182G-S197G (mouse) (UniProt Q62513); assay: co-IP; whole cell lysates of immortalized PSCs (IP lysis buffer), pre-cleared with Protein A/G magnetic beads, antibody overnight, magnetic bead capture, Western blot; Fig. 3m with osteogenic induction; Fig. 6l in Zfp260-/- PSCs overexpressing Zfp260-V5 or its mutants
T2 sequence: T1 sequence with S182G, S197G

[3] = target: T3, Zfp260-V5 Y173F-S182G-S197G (mouse) (UniProt Q62513); assay: as above
T3 sequence: T1 sequence with Y173F, S182G, S197G

Zfp260-V5 S182G (mouse) = target: T4, Zfp260-V5 S182G (mouse) (UniProt Q62513); assay: as above
T4 sequence: T1 sequence with S182G

[4] = target: T5, Zfp260-V5 Y173F-S182G (mouse) (UniProt Q62513); assay: as above
T5 sequence: T1 sequence with Y173F, S182G

[5] = target: T6, Zfp260-V5 (wild type) (mouse) (UniProt Q62513); assay: as above
T6 sequence: T1 sequence

Zfp260-V5 Y173F (mouse) = target: T7, Zfp260-V5 Y173F (mouse) (UniProt Q62513); assay: as above
T7 sequence: T1 sequence with Y173F

Zfp260-V5 S197G (mouse) = target: T8, Zfp260-V5 S197G (mouse) (UniProt Q62513); assay: as above
T8 sequence: T1 sequence with S197G

[6] = target: T9, Zfp260-V5 Y173F-S197G (mouse) (UniProt Q62513); assay: as above
T9 sequence: T1 sequence with Y173F, S197G

Measured: binding

Prkca (in the 293 T cell line) (from UniProt P20444 1-672) (enzyme)
binds: [1]

Prkca (from UniProt P20444 1-672) (enzyme)
binds: [2] | [3] | Zfp260-V5 S182G (mouse) | [4] | [5] | Zfp260-V5 Y173F (mouse) | Zfp260-V5 S197G (mouse) | [6]
